According to the supplement of paper PMC10849652:
Some of the results follow.

Protein sequences, listed by entry. Tags and fused reporters are not part of them. Lines headed by an entry give the natural chain unless they say otherwise; changes in a name come on top.
UniProt P05556, whole entry, looked up: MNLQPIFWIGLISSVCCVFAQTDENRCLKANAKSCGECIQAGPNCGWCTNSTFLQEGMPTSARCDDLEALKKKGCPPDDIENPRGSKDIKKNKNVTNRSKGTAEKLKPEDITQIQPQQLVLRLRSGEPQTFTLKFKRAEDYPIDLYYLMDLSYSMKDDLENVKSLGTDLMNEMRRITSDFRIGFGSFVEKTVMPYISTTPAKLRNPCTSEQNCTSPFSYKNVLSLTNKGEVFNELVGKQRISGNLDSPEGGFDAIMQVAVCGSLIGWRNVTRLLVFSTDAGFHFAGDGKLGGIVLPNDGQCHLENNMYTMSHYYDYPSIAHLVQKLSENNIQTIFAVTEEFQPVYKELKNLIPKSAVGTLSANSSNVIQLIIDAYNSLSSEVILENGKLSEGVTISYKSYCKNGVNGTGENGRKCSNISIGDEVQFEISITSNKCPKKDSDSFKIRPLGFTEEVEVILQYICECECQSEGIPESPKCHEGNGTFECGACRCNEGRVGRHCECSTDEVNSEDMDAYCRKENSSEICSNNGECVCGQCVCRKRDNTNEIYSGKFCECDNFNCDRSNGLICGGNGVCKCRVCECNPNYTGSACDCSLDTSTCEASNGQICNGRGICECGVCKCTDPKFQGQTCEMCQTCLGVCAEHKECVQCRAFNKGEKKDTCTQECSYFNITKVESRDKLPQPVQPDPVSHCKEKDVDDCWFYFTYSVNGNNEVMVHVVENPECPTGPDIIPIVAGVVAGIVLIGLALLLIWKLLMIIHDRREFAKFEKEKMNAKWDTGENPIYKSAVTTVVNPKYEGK
UniProt P17535: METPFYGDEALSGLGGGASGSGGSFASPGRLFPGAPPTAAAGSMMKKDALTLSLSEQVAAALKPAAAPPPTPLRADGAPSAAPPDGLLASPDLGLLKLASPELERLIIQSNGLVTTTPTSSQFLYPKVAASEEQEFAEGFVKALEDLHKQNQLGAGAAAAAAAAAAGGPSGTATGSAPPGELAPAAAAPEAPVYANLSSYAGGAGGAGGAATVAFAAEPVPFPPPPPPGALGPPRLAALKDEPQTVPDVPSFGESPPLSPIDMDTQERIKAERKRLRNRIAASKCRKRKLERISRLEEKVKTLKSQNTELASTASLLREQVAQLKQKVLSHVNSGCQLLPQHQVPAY
UniProt Q9NQX7: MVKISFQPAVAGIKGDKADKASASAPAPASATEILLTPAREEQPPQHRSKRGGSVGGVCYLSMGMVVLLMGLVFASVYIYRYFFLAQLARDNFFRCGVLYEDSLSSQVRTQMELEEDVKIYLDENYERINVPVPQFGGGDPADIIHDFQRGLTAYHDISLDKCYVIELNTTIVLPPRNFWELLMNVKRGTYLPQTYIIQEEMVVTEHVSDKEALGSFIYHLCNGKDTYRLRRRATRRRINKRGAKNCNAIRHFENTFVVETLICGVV
UniProt P19823: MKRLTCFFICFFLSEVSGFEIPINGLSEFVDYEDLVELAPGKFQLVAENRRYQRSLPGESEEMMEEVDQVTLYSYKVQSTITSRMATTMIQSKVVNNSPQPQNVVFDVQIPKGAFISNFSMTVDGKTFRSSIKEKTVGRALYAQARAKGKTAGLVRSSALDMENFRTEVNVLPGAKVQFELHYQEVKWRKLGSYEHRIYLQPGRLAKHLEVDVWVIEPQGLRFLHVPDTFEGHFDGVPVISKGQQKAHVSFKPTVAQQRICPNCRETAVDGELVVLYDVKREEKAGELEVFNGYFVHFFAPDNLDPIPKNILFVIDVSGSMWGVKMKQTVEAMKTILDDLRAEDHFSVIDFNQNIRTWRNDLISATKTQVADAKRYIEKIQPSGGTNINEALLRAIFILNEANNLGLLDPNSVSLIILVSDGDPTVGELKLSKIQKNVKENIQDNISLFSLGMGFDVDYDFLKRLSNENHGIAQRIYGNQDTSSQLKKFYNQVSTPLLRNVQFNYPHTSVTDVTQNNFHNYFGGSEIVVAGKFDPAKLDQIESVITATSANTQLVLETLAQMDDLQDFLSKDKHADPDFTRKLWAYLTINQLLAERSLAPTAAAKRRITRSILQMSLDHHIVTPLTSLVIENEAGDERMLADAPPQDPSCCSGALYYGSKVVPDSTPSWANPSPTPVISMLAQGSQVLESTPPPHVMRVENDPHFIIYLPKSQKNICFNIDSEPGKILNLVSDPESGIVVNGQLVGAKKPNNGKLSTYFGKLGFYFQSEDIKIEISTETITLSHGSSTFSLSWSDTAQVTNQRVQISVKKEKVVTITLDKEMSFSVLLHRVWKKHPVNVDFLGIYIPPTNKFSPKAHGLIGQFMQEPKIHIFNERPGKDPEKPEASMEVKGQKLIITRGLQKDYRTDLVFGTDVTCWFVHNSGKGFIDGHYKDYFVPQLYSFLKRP
UniProt Q9UK76: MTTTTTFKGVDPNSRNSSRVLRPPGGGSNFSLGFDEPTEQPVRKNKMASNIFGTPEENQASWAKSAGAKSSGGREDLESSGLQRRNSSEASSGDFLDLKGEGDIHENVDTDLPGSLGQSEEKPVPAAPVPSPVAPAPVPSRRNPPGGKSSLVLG
UniProt Q8WVZ9: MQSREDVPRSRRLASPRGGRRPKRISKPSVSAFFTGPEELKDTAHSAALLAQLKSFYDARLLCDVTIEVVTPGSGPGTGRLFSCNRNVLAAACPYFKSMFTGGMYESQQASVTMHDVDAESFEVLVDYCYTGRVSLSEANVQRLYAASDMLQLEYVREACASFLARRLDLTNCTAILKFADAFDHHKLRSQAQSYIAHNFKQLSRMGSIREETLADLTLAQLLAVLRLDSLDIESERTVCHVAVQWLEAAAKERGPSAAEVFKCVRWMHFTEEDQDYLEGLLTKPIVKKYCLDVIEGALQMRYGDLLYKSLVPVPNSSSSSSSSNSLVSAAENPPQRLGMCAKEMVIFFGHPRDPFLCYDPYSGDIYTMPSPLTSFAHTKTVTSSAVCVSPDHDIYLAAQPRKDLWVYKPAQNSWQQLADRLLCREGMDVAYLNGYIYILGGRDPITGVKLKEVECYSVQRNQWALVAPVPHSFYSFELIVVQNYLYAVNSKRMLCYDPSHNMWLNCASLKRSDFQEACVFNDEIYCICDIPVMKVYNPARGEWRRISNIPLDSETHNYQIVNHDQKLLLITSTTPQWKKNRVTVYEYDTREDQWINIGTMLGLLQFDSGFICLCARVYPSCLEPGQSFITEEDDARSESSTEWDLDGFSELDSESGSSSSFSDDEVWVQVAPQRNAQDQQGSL
UniProt Q86VI3: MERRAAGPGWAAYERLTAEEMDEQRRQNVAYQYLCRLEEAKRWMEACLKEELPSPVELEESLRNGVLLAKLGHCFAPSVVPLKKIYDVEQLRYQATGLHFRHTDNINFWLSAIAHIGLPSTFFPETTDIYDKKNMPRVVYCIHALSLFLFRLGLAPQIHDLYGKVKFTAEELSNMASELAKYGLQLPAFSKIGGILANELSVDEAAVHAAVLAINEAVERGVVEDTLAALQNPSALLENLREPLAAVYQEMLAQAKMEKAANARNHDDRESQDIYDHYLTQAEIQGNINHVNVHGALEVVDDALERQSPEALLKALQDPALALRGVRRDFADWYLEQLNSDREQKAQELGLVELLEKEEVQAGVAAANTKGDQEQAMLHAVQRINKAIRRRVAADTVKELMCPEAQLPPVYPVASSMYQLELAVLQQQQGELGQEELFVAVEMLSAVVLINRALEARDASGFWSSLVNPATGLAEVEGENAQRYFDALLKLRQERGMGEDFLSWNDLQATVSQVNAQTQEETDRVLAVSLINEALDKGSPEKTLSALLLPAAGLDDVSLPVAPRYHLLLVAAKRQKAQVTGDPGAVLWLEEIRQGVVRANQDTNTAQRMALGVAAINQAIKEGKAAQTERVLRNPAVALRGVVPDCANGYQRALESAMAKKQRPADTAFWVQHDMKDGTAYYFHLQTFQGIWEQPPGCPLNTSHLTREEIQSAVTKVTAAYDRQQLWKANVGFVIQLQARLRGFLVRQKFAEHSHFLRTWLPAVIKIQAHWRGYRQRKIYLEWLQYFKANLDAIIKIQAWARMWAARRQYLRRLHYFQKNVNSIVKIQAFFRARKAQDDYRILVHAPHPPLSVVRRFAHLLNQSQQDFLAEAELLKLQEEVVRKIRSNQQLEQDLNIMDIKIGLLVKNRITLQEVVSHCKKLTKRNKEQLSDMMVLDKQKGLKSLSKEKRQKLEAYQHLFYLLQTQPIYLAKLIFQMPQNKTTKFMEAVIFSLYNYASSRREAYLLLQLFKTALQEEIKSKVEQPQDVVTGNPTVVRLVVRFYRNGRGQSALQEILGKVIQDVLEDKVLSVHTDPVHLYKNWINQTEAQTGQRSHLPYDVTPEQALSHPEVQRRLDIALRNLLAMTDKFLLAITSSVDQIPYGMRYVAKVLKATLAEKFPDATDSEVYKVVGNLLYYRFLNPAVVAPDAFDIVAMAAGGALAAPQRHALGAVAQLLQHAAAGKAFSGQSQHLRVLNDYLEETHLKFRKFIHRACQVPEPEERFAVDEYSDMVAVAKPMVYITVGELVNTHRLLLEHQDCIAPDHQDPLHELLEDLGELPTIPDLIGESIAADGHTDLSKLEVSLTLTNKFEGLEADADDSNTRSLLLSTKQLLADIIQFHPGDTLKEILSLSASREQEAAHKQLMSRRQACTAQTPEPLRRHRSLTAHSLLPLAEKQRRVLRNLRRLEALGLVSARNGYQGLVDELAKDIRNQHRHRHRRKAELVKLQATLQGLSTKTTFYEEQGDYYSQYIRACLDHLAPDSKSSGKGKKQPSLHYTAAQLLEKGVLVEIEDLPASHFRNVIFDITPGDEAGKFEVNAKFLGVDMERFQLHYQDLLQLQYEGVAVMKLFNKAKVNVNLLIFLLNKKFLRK
UniProt O76095: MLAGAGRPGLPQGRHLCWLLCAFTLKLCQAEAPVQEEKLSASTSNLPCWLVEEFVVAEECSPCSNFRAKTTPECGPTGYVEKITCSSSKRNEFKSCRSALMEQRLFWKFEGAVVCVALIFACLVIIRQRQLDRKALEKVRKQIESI
UniProt Q9H3F6: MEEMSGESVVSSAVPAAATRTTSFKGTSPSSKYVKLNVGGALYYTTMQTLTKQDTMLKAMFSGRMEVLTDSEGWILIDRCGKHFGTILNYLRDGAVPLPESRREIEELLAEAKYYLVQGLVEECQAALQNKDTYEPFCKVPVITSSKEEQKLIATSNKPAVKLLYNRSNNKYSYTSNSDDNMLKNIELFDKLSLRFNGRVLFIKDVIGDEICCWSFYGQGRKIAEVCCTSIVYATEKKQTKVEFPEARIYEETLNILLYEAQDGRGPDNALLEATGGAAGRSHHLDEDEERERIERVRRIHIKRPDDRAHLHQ
UniProt Q674X7: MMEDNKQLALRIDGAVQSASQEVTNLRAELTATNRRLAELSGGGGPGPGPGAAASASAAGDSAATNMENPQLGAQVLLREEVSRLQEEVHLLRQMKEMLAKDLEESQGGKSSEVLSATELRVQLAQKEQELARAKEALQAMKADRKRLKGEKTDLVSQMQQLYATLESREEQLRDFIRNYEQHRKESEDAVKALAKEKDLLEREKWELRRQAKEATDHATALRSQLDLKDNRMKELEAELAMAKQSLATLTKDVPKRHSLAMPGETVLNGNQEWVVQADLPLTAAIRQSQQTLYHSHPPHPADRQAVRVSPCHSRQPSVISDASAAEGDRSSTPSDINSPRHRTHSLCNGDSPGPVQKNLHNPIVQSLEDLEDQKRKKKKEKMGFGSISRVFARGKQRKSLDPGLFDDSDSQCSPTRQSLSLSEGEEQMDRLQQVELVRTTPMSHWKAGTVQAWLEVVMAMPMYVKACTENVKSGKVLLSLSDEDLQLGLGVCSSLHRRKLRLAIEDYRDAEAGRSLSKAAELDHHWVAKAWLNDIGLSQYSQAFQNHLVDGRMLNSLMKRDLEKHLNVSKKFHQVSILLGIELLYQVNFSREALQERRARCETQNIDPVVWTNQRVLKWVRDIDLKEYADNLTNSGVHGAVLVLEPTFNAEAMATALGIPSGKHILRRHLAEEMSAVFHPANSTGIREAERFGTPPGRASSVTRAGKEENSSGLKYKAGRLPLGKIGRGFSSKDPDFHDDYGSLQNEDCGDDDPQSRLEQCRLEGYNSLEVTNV
UniProt Q14681: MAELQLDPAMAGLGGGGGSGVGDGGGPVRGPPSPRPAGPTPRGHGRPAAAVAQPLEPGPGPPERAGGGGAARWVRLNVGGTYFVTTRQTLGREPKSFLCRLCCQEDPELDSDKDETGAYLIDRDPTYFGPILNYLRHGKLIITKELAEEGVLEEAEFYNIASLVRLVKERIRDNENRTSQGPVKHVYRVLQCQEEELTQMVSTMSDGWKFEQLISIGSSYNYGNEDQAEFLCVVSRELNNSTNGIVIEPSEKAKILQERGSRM
UniProt Q9BUE6: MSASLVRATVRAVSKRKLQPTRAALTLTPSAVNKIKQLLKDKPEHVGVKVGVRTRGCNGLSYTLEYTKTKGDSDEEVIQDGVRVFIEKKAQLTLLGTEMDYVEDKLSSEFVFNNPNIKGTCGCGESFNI

The targets below were run with CS(=O)(=O)CCNCc1ccc(-c2ccc3ncnc(Nc4ccc(OCc5cccc(F)c5)c(Cl)c4)c3c2)o1 [lapatinib] (assay: log2 fold change, soluble protein after heating vs DMSO (PISA); higher = thermal stabilisation; K562 lysate, 10 uM; active = over 0.2 and 3.5 SD of the protein, either way, in both replicates (recomputed)).
In short: (§1)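 Pellets of K562 cells were dounce-homogenised in PBS pH 7.4 with 1 mM MgCl2, and the crude extract was held at 1 mg/mL protein for a 30 min treatment with 10 μM compound. Aliquots were heated for 3 min over 48°C-58°C and pooled before NP-40 was added to 0.5% at 4°C. The supernatant from 21,000xg for 90 min was quantified by TMTpro 16plex LC-MS/MS with channel sums equalised. Values are reported from duplicates as log-two fold change in thermal stability relative to solvent controls.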

Row | Target | log2 fold change
1 | KDM1A (UniProt O60341) | inactive: -0.01
2 | IPO8 (UniProt O15397) | inactive: -0.026
3 | ITGB1 (UniProt P05556) | inactive: -0.009
4 | KCNK5 (UniProt O95279) | inactive: -0.286
5 | JUND (UniProt P17535) | inactive: 0.033
6 | ITM2C (UniProt Q9NQX7) | inactive: 0.27
7 | ITIH2 (UniProt P19823) | inactive: 0.047
8 | JUN (UniProt P05412) | inactive: 0.071
9 | JPT1 (UniProt Q9UK76) | inactive: 0.016
10 | KCNN4 (UniProt O15554) | inactive: 0.106
11 | IQUB (UniProt Q8NA54) | inactive: 0.081
12 | KATNBL1 (UniProt Q9H079) | inactive: -0.013
13 | KAT2A (UniProt Q92830) | inactive: 0.06
14 | KBTBD7 (UniProt Q8WVZ9) | inactive: -0.033
15 | KCTD7 (UniProt Q96MP8) | inactive: -0.093
16 | ISCA2 (UniProt Q86U28) | inactive: 0.036
17 | ITGB1BP1 (UniProt O14713) | inactive: 0.024
18 | IQGAP3 (UniProt Q86VI3) | inactive: -0.035
19 | IQCD (UniProt Q96DY2) | inactive: -0.04
20 | JTB (UniProt O76095) | inactive: 0.01

Row | Target | log2 fold change
21 | ITGA2B (UniProt P08514) | inactive: 0.209
22 | IQGAP1 (UniProt P46940) | inactive: -0.022
23 | IST1 isoform 2 (UniProt P53990) | inactive: -0.036
24 | JAK3 (UniProt P52333) | inactive: -0.002
25 | KCTD10 (UniProt Q9H3F6) | inactive: 0.005
26 | ITPR1 (UniProt Q14643) | inactive: -0.079
27 | KAT14 (UniProt Q9H8E8) | inactive: -0.072
28 | KAZN (UniProt Q674X7) | inactive: 0.041
29 | ITM2A (UniProt O43736) | inactive: -0.005
30 | KDELR3 (UniProt O43731) | inactive: -0.038
31 | IRS2 (UniProt Q9Y4H2) | inactive: -0.128
32 | KCTD2 (UniProt Q14681) | inactive: -0.001
33 | KCNK1 (UniProt O00180) | inactive: -0.032
34 | ITCH (UniProt Q96J02) | inactive: -0.021
35 | ITGAE (UniProt P38570) | inactive: -0.162
36 | ITPRID2 (UniProt P28290) | inactive: -0.092
37 | JMJD7 (UniProt P0C870) | inactive: 0.099
38 | KDF1 (UniProt Q8NAX2) | inactive: -0.019
39 | ISCA1 isoform 2 (UniProt Q9BUE6) | inactive: 0.054

Each target was assayed with CS(=O)(=O)N1CCN(Cc2cc3nc(-c4cccc5[nH]ncc45)nc(N4CCOCC4)c3s2)CC1 [pictilisib] in the same assay as above.
In short: as §1

Row | Target | log2 fold change
40 | KDM1A (UniProt O60341) | inactive: -0.029
41 | IPO8 (UniProt O15397) | inactive: 0.023
42 | ITGB1 (UniProt P05556) | inactive: -0.018
43 | KCNK5 (UniProt O95279) | inactive: -0.078
44 | JUND (UniProt P17535) | inactive: -0.034
45 | ITM2C (UniProt Q9NQX7) | inactive: -0.109
46 | ITIH2 (UniProt P19823) | inactive: -0.032
47 | JPT1 (UniProt Q9UK76) | inactive: -0.081
48 | IQUB (UniProt Q8NA54) | inactive: -0.185
49 | KBTBD7 (UniProt Q8WVZ9) | inactive: -0.195
50 | ISCA2 (UniProt Q86U28) | inactive: -0.035
51 | ITGB1BP1 (UniProt O14713) | inactive: 0.085
52 | IQGAP3 (UniProt Q86VI3) | inactive: 0.025
53 | IQCD (UniProt Q96DY2) | inactive: -0.403
54 | JTB (UniProt O76095) | inactive: 0.089
55 | IQGAP1 (UniProt P46940) | inactive: 0.006

Row | Target | log2 fold change
56 | JAK3 (UniProt P52333) | inactive: 0.01
57 | KCTD10 (UniProt Q9H3F6) | inactive: 0
58 | ITPR1 (UniProt Q14643) | inactive: 0.009
59 | KAT14 (UniProt Q9H8E8) | inactive: 0.051
60 | KAZN (UniProt Q674X7) | inactive: -0.007
61 | ITM2A (UniProt O43736) | inactive: -0.104
62 | IRS2 (UniProt Q9Y4H2) | inactive: 0.023
63 | KCTD2 (UniProt Q14681) | inactive: -0.12
64 | KCNK1 (UniProt O00180) | inactive: 0.016
65 | ITCH (UniProt Q96J02) | inactive: -0.018
66 | ITGAE (UniProt P38570) | inactive: 0.047
67 | ITPRID2 (UniProt P28290) | inactive: 0.03
68 | JMJD7 (UniProt P0C870) | inactive: 0.102
69 | KDF1 (UniProt Q8NAX2) | inactive: -0.208
70 | ISCA1 isoform 2 (UniProt Q9BUE6) | inactive: -0.08

The targets below were run with C[C@@H](Oc1cc(-c2cnn(C3CCNCC3)c2)cnc1N)c1c(Cl)ccc(F)c1Cl [crizotinib] in the same assay as above.
In short: as §1

Row | Target | log2 fold change
71 | KDM1A (UniProt O60341) | inactive: -0.036
72 | IPO8 (UniProt O15397) | inactive: -0.037
73 | ITGB1 (UniProt P05556) | inactive: -0.002
74 | KCNK5 (UniProt O95279) | inactive: 0.089
75 | JUND (UniProt P17535) | inactive: -0.012
76 | ITM2C (UniProt Q9NQX7) | inactive: 0.143
77 | ITIH2 (UniProt P19823) | inactive: 0.009
78 | JUN (UniProt P05412) | inactive: -0.125
79 | JPT1 (UniProt Q9UK76) | inactive: 0.022
80 | KCNN4 (UniProt O15554) | inactive: 0.077
81 | KATNBL1 (UniProt Q9H079) | inactive: -0.066
82 | KAT2A (UniProt Q92830) | inactive: -0.093
83 | KBTBD7 (UniProt Q8WVZ9) | inactive: 0.007
84 | KCTD7 (UniProt Q96MP8) | inactive: 0.134
85 | ISCA2 (UniProt Q86U28) | inactive: 0.005
86 | IQGAP3 (UniProt Q86VI3) | inactive: -0.049
87 | JTB (UniProt O76095) | inactive: 0.038
88 | ITGA2B (UniProt P08514) | inactive: -0.073
89 | IQGAP1 (UniProt P46940) | inactive: -0.016
90 | IST1 isoform 2 (UniProt P53990) | inactive: 0.048
91 | JAK3 (UniProt P52333) | inactive: 0.051
92 | KCTD10 (UniProt Q9H3F6) | inactive: -0.016
93 | ITPR1 (UniProt Q14643) | inactive: -0.122
94 | KAZN (UniProt Q674X7) | inactive: -0.001
95 | KDELR3 (UniProt O43731) | inactive: 0.209
96 | IRS2 (UniProt Q9Y4H2) | inactive: -0.186
97 | KCTD2 (UniProt Q14681) | inactive: -0.135
98 | ITCH (UniProt Q96J02) | inactive: 0.03
99 | KDF1 (UniProt Q8NAX2) | inactive: -0.118
100 | ISCA1 isoform 2 (UniProt Q9BUE6) | inactive: -0.011
